PubChem BioAssay AID1224828, NIAID | 2016

Aim: 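Find genes required for NF-kappaB p65 moving into the nucleus after LPS in mouse macrophages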 (primary screen)
Cell system: mouse RAW264.7 G9 macrophage reporter cells (GFP-p65, Tnf promoter-mCherry)
Reagents: siRNA pool against mouse genes, 100 nM
Duration: 2 days siRNA transfection, then 40 min LPS before fixation
Treatment: LPS (Salmonella minnesota R595) at 10 ng/ml
Detection: 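Imaged p65 nuclear translocation ratio, normalised to the plate median, converted to robust z-scores and averaged across two replicates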
Scale: p65 translocation robust z-score: higher = more nuclear NF-kappaB p65 after LPS than the plate median; nuclear/cytoplasmic p65 ratio: higher = more nuclear NF-kappaB p65
Call rule: 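Called active when z exceeds 3.3 or falls under -1.56 (median of Tlr4 controls), giving activity score of at least 50; no calls for control wells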
Calls: active = hit (p65 shift raised or lowered); inactive = no clear change
The deposit covers about 17,000 reagents; this is a part drawn at random. Of all reagents, 762 (4.5%) got an active call. 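Active calls include both raised and lowered p65 entry, mostly lowered; wells with fewer than 50 cells lack a z-score.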 Raw values vary from plate to plate and are shown uncorrected. Reagent sequences are not shown.

| target gene | p65 translocation robust z-score | nuclear/cytoplasmic p65 ratio, rep 1 | nuclear/cytoplasmic p65 ratio, rep 2 | low cell count flag | call |
| --- | --- | --- | --- | --- | --- |
| Magee1 | -0.73 | 1.65 | 1.4 | enough cells to score | inactive |
| Umodl1 | -0.7 | 1.43 | 1.49 | enough cells to score | inactive |
| Trim12c | -1.02 | 1.46 | 1.46 | enough cells to score | inactive |
| Dmbt1 | 1.72 | 1.72 | 1.56 | enough cells to score | inactive |
| Ltv1 | – | 1.87 | 1.57 | fewer than 50 cells per well; well left out of scoring | inactive |
| Arhgap4 | 0.21 | 1.71 | 1.6 | enough cells to score | inactive |
| Scrg1 | – | 1.27 | 1.13 | fewer than 50 cells per well; well left out of scoring | inactive |
| Mapk8ip1 | 0.41 | 2.37 | 1.43 | enough cells to score | inactive |
| Or2ak5 | -0.29 | 1.51 | 1.44 | enough cells to score | inactive |
| Cacna1g | 1.05 | 1.83 | 1.71 | enough cells to score | inactive |
| Kdm5c | -0.02 | 1.54 | 1.43 | enough cells to score | inactive |
| Scamp3 | 2.69 | 2.15 | 1.65 | enough cells to score | inactive |
| Cep295 | 1.84 | 1.52 | 1.71 | enough cells to score | inactive |
| Mkrn2 | 1.54 | 1.99 | 1.86 | enough cells to score | inactive |
| Zfp946 | -1.42 | 1.3 | 1.15 | enough cells to score | inactive |
| Tmem268 | 0.24 | 1.33 | 1.56 | enough cells to score | inactive |
| Slc4a3 | 0.21 | 1.51 | 1.58 | enough cells to score | inactive |
| Yipf6 | 0.15 | 1.4 | 1.55 | enough cells to score | inactive |
| Psme4 | – | 1.7 | 1.11 | fewer than 50 cells per well; well left out of scoring | inactive |
| Elk3 | -1.29 | 1.43 | 1.2 | enough cells to score | inactive |
| Seh1l | 1.25 | 1.5 | 1.69 | enough cells to score | inactive |
| Pamr1 | -0.24 | 1.43 | 1.18 | enough cells to score | inactive |
| Msrb2 | 0.07 | 1.49 | 1.31 | enough cells to score | inactive |
| Vps39 | 0.41 | 1.43 | 1.28 | enough cells to score | inactive |
| Or4c122 | 0.51 | 1.8 | 1.6 | enough cells to score | inactive |
| Wdr77 | – | 1.2 | 1.39 | fewer than 50 cells per well; well left out of scoring | inactive |
| C2 | -0.64 | 1.55 | 1.49 | enough cells to score | inactive |
| Gabra1 | -0.45 | 1.32 | 1.37 | enough cells to score | inactive |
| Agbl5 | 1.16 | 1.68 | 1.61 | enough cells to score | inactive |
| Fez2 | 0.73 | 1.71 | 1.55 | enough cells to score | inactive |

Quoted from the entries so far for reference:
| target gene | p65 translocation robust z-score | nuclear/cytoplasmic p65 ratio, rep 1 | nuclear/cytoplasmic p65 ratio, rep 2 | low cell count flag | call |
| --- | --- | --- | --- | --- | --- |
| Psme4 | – | 1.7 | 1.11 | fewer than 50 cells per well; well left out of scoring | inactive |
| Elk3 | -1.29 | 1.43 | 1.2 | enough cells to score | inactive |
| Seh1l | 1.25 | 1.5 | 1.69 | enough cells to score | inactive |
| Pamr1 | -0.24 | 1.43 | 1.18 | enough cells to score | inactive |
| Msrb2 | 0.07 | 1.49 | 1.31 | enough cells to score | inactive |

Further entries follow.
| target gene | p65 translocation robust z-score | nuclear/cytoplasmic p65 ratio, rep 1 | nuclear/cytoplasmic p65 ratio, rep 2 | low cell count flag | call |
| --- | --- | --- | --- | --- | --- |
| Or51aa5 | -0.06 | 1.38 | 1.31 | enough cells to score | inactive |
| Gatd1 | 1.5 | 1.72 | 2.18 | enough cells to score | inactive |
| Itgb5 | 0.29 | 1.55 | 1.38 | enough cells to score | inactive |
| Lamb3 | 1.46 | 1.66 | 1.58 | enough cells to score | inactive |
| Eci3 | – | 1.51 | 2.1 | fewer than 50 cells per well; well left out of scoring | inactive |
| Zfp592 | -1.1 | 1.22 | 1.16 | enough cells to score | inactive |
| Sdad1 | -0.62 | 1.36 | 1.13 | enough cells to score | inactive |
| Fgf21 | -0.32 | 1.32 | 1.4 | enough cells to score | inactive |
| Plvap | – | 1.35 | 1.19 | fewer than 50 cells per well; well left out of scoring | inactive |
| Ly9 | -0.41 | 1.66 | 1.12 | enough cells to score | inactive |
| Zfp300 | -2.16 | 1.33 | 1.26 | enough cells to score | active |
| Wdfy2 | – | 1.65 | 0.977 | fewer than 50 cells per well; well left out of scoring | inactive |
| Poldip2 | – | 1.29 | 1.18 | fewer than 50 cells per well; well left out of scoring | inactive |
| Mettl25b | -1.34 | 1.42 | 1.58 | enough cells to score | inactive |
| Nhsl1 | – | 1.33 | 1.62 | fewer than 50 cells per well; well left out of scoring | inactive |
| Fancg | -1.29 | 1.24 | 1.2 | enough cells to score | inactive |
| Bloc1s5 | -0.26 | 1.75 | 1.55 | enough cells to score | inactive |
| Or5p1 | 0.39 | 1.5 | 1.29 | enough cells to score | inactive |
| Cyp2j6 | 0.61 | 1.62 | 1.94 | enough cells to score | inactive |
| Il1a | 0.65 | 1.54 | 1.49 | enough cells to score | inactive |
| Rab11fip3 | -0.96 | 1.41 | 1.65 | enough cells to score | inactive |
| Xpc | 0.72 | 1.58 | 1.64 | enough cells to score | inactive |
| Xlr4c | – | 0 | 1.51 | fewer than 50 cells per well; well left out of scoring | inactive |
| Sec63 | 0.57 | 1.57 | 1.24 | enough cells to score | inactive |
| Tars1 | – | 1.67 | 1.35 | fewer than 50 cells per well; well left out of scoring | inactive |
| Cidec | 0.82 | 1.66 | 1.63 | enough cells to score | inactive |
| Bag6 | 1.54 | 1.87 | 2.04 | enough cells to score | inactive |
| Stx4a | -0.22 | 1.34 | 1.25 | enough cells to score | inactive |
| Or51i1 | 2.45 | 1.69 | 1.62 | enough cells to score | inactive |
